Source: US6694171B1, “X-ray imaging of tumors with dextran carrier of platinum compounds” (Yeda Research and Development, priority 1997, dated 2004)

Assay: CT imaging of Plexiglas phantom with Pt solutions (FIGS. 8-9)

Compound: [Cl][Pt-2]([Cl])([Cl])([Cl])([Cl])[Cl].[Na+].[Na+] [Pt, Na2PtCl6]
- average gray level in CT image (10 μg/ml Pt in aqueous solution, 1 mm slice): 36.1
- average gray level in CT image (30 μg/ml Pt): 43.0
- average gray level in CT image (100 μg/ml Pt): 51.3
- average gray level in CT image (300 μg/ml Pt): 75.7
- average gray level in CT image (1000 μg/ml Pt): 132.1
